For at least one compound, name, drawing or mass did not settle the structure.
Key:
[1] = system: Ciprofloxacin-Resistant S. aureus; assay: In vitro antimicrobial susceptibility (MIC), Ciprofloxacin-Resistant S. aureus; type: cell-based; settings: pH 5.8; 12 isolates; in µg/mL (unit assumed)
Method: (§1) A finafloxacin solution composition at pH 5.8 and 7.3 was compared to ciprofloxacin and ofloxacin compositions using standard in vitro antimicrobial susceptibility tests (M07-08 Methods for Dilution Antimicrobial Susceptibility Tests for Bacteria that Grow Aerobically; Approved Standard-Eighth Edition (January 2009, Clinical and Laboratory Standards Institute), herein incorporated by reference). Minimum inhibitory concentrations (MIC50) were determined using organisms commonly found in otic and ophthalmic infections. The MIC50 was the lowest concentration of antibiotic that prevented growth of the test organism, as determined visually by a lack of turbidity.
(§2) The results of the experiment are presented below in TABLES 1-5. At acidic pH, finafloxacin generally had greater activity against both Gram-positive and Gram-negative organisms than the fluoroquinolones ciprofloxacin and ofloxacin, both of which are used for the treatment of otic infections. Higher activity under acidic conditions is important for an otic formulation since a low pH formulation is preferred to slow bacterial and fungal growth, as well as the fact the pH environment of the external ear canal is ˜pH 6.

[2] = system: Ciprofloxacin-Resistant P. aeruginosa; assay: In vitro antimicrobial susceptibility (MIC), Ciprofloxacin-Resistant P. aeruginosa; type: cell-based; design: unit not given beside the values; settings: 11 isolates
Method: as §1, §2

Compound: CC1COc2c(N3CCN(C)CC3)c(F)cc3c(=O)c(C(=O)O)cn1c23 (stereo not drawn) [Ofloxacin, ofloxacin]
- MIC Range [1]: 16->512
- MIC Range ([2]; pH 5.8): 64->512
- MIC Range ([2]; pH 7.3): 8->512

— US9504691B2, “Finafloxacin suspension compositions” (ALCON RESEARCH, LTD., priority 2012, dated 2016)
